{
  "sequences": {"note": "Amino acid sequences for entries named in this document (tags omitted). A change or cut given only in a name is not applied to a line headed by its entry.", "UniProt Q9UK53": "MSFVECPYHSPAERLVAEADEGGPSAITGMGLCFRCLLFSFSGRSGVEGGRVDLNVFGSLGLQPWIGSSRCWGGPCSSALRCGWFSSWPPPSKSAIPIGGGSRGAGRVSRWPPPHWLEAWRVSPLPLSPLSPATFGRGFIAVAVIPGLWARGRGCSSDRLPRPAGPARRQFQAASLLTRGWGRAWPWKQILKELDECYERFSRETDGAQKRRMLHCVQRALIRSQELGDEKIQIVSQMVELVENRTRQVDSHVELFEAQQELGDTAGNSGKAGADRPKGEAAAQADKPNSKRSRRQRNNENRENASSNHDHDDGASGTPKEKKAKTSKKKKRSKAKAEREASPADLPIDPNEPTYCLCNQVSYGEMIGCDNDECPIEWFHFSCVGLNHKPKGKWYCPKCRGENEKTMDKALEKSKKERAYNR", "UniProt Q92878": "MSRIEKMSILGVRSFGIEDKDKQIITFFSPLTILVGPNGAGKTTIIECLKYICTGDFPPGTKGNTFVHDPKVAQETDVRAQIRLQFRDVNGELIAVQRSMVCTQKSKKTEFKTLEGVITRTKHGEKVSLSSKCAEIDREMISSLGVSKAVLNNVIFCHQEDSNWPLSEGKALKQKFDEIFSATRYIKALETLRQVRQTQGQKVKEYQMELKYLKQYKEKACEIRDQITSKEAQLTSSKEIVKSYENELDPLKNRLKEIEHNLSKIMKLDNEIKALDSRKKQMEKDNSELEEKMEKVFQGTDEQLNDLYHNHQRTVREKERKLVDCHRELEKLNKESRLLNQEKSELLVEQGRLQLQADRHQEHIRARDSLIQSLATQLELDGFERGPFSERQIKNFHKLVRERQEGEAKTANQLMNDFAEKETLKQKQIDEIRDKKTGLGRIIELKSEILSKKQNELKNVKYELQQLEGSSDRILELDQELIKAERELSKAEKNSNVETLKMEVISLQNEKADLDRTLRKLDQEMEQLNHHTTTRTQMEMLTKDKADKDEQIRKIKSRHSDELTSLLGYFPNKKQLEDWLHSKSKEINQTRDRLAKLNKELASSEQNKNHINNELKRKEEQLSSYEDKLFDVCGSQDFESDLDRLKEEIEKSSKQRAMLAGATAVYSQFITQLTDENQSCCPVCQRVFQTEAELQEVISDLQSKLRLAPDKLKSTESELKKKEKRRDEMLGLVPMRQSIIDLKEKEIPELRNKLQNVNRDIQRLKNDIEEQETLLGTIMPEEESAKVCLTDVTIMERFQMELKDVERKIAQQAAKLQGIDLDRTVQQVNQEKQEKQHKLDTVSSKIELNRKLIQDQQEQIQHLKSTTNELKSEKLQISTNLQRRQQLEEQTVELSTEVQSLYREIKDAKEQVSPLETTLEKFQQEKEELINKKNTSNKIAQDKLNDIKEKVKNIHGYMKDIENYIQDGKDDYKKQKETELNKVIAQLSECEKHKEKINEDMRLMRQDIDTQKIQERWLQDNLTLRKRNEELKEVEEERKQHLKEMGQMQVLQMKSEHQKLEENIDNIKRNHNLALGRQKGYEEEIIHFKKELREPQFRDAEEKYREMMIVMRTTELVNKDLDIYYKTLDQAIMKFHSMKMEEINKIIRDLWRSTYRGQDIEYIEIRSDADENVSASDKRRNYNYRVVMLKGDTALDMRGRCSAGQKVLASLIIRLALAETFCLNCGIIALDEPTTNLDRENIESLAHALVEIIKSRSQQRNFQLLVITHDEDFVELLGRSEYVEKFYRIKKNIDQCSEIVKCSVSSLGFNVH"},
  "source": "paper PMC2565686",
  "target": "endogenous ING1 (INhibitor of Growth 1) (human (endogenous in HEK293)) (UniProt Q9UK53)",
  "experiment": "co-IP; untransfected HEK293 cells, lysed in RIPA buffer, immunoprecipitated with mouse anti-ING1 on protein G-Sepharose (4°C, 3 hrs), immunoblotted for the partner; cells untreated or exposed to 40 J/m^2 UV; anti-GST immunoprecipitate as negative control",
  "note": "No constants are given. Whether binding was seen depends on the method and setting. In cells and extracts the contact can be indirect. Binding calls can cover weak binding; strength is not graded here.",
  "data": [
    {"substance": "endogenous RAD50 (from UniProt Q92878 1-1312)", "values": [
      {"measurement": "binding", "result": "binds"}
    ]}
  ]
}
